Results published in the supplement of paper PMC11006884.
Only a part is listed here, and it is no random draw. Single values of this set are uncertain.

By UniProt entry, the sequences of proteins in these tests, tags left out. Where a name states a change or a piece, a line headed by the entry shows the natural chain unless it says otherwise.
UniProt P20810: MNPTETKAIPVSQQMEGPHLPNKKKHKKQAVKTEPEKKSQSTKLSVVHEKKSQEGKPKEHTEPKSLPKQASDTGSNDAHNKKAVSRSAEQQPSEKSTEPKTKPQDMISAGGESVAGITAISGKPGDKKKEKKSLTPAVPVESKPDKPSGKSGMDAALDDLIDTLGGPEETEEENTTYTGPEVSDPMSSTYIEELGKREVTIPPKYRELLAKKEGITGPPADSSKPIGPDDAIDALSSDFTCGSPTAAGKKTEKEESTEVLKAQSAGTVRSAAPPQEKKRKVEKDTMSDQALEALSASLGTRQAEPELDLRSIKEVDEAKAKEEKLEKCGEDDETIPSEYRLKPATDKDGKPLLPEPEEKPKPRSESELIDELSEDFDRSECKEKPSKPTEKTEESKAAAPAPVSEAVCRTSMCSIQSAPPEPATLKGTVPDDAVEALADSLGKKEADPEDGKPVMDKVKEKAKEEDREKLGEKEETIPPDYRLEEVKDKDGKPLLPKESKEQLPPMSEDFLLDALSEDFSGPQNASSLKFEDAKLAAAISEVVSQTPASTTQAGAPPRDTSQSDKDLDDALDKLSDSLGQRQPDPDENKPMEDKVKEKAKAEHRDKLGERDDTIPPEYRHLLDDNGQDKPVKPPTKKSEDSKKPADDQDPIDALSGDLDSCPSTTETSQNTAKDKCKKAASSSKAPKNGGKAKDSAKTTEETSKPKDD
UniProt P27708: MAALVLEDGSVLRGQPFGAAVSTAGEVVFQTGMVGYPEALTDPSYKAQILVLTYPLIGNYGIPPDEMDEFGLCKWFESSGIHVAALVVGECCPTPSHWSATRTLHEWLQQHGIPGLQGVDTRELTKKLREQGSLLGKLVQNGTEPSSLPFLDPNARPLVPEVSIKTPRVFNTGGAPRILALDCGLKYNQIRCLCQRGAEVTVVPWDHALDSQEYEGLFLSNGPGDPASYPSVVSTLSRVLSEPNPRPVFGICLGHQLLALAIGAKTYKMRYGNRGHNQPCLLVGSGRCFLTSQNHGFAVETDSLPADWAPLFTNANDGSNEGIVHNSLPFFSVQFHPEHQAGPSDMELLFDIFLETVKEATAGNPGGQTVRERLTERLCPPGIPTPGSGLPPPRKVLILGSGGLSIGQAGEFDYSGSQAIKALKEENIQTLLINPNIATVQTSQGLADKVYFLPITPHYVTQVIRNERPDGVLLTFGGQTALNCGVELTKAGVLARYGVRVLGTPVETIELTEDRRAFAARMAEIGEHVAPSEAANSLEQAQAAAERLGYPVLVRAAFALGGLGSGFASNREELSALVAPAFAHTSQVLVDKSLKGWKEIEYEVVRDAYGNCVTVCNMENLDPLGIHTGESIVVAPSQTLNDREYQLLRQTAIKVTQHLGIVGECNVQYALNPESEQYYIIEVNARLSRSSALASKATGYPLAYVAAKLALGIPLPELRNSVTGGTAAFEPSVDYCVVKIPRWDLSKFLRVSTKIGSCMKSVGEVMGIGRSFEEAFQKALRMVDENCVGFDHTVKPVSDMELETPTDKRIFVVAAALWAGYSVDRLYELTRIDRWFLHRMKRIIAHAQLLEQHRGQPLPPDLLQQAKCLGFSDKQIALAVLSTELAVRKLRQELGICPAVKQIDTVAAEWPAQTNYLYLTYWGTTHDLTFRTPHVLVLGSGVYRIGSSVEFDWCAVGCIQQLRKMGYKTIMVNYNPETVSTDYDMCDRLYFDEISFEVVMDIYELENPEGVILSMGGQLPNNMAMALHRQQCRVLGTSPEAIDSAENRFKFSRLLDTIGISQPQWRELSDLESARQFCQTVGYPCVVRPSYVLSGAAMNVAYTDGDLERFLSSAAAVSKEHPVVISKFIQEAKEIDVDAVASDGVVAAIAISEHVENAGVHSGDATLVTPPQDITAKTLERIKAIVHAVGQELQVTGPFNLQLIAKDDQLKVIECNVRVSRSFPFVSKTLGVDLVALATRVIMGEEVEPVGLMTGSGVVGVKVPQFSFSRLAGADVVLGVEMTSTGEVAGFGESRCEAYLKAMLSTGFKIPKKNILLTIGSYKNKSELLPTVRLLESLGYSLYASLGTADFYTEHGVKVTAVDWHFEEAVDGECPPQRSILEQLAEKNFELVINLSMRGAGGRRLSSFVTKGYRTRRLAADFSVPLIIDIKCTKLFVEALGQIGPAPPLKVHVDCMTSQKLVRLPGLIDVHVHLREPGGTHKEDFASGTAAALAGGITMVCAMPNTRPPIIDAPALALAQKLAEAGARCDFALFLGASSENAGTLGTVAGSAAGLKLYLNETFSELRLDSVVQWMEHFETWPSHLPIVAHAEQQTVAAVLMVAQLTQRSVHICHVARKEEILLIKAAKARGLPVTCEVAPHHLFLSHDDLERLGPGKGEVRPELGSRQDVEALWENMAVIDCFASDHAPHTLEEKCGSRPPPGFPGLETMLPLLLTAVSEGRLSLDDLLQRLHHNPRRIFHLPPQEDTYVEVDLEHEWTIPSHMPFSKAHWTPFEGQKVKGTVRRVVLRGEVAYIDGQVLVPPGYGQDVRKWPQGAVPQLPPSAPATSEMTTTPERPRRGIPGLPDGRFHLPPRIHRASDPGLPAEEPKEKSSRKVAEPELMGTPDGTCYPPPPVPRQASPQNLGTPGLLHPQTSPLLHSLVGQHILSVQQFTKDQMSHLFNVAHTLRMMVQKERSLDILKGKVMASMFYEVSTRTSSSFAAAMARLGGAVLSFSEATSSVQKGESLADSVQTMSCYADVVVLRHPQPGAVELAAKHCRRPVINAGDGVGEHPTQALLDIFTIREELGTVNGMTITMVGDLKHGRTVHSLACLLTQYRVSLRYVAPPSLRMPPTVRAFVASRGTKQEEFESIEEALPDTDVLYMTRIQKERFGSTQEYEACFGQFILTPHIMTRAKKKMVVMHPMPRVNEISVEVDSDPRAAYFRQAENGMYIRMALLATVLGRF
UniProt P23368: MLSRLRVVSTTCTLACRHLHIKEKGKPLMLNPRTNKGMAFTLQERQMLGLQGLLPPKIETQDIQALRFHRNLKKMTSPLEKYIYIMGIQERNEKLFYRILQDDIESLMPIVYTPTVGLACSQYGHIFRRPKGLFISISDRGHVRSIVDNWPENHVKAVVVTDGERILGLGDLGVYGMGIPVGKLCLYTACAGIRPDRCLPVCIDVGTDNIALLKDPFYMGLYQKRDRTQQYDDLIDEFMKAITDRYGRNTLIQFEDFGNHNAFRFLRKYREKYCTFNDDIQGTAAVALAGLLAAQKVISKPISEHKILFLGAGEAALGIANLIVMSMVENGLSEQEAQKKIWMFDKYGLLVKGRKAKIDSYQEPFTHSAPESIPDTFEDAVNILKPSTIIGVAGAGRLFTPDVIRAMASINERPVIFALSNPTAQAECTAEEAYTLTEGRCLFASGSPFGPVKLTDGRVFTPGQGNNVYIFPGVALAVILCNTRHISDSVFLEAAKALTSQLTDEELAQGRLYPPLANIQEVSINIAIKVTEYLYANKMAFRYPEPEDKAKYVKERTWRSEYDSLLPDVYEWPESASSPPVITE
UniProt P17987, whole entry, looked up: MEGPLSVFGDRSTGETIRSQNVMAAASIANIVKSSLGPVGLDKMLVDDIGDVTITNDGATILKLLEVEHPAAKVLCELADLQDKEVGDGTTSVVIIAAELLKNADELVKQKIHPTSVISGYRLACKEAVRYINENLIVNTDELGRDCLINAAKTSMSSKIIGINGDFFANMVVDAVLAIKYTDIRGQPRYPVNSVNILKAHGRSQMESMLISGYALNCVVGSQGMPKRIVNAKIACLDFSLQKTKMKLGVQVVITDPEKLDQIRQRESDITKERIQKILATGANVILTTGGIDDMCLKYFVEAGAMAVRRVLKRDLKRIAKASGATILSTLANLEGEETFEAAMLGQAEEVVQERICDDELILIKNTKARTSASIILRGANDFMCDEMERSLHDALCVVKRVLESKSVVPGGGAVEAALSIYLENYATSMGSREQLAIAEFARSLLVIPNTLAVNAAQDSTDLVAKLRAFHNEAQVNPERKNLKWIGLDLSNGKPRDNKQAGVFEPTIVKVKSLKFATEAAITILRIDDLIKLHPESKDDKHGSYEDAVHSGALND
UniProt P28340: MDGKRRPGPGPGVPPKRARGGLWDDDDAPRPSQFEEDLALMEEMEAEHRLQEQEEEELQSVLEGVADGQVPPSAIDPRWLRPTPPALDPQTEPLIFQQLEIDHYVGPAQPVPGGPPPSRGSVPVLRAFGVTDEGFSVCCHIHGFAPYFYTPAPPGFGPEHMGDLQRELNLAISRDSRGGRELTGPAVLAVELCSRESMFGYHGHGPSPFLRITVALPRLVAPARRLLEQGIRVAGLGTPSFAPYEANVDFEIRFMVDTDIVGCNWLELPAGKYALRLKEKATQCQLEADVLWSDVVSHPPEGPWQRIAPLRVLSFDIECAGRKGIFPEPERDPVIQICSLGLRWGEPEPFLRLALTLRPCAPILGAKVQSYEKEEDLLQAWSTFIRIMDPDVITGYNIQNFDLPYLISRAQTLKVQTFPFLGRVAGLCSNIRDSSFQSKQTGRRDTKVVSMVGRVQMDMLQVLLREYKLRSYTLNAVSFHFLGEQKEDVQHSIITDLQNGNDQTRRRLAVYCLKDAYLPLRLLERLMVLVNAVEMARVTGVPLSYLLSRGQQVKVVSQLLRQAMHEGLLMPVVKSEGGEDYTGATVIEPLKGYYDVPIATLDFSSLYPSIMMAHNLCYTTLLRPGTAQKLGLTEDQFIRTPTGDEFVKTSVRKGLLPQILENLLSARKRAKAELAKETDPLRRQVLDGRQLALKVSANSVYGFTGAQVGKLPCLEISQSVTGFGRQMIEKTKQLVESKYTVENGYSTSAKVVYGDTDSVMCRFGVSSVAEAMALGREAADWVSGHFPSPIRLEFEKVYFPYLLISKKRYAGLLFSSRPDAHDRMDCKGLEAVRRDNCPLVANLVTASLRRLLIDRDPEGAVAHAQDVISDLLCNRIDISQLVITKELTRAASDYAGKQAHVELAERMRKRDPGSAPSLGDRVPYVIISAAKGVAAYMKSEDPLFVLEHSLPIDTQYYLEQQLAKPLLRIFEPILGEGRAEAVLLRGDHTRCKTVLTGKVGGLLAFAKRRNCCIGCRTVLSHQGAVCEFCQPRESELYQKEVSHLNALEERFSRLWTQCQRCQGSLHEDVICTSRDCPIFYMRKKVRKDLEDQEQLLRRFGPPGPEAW
UniProt P23921: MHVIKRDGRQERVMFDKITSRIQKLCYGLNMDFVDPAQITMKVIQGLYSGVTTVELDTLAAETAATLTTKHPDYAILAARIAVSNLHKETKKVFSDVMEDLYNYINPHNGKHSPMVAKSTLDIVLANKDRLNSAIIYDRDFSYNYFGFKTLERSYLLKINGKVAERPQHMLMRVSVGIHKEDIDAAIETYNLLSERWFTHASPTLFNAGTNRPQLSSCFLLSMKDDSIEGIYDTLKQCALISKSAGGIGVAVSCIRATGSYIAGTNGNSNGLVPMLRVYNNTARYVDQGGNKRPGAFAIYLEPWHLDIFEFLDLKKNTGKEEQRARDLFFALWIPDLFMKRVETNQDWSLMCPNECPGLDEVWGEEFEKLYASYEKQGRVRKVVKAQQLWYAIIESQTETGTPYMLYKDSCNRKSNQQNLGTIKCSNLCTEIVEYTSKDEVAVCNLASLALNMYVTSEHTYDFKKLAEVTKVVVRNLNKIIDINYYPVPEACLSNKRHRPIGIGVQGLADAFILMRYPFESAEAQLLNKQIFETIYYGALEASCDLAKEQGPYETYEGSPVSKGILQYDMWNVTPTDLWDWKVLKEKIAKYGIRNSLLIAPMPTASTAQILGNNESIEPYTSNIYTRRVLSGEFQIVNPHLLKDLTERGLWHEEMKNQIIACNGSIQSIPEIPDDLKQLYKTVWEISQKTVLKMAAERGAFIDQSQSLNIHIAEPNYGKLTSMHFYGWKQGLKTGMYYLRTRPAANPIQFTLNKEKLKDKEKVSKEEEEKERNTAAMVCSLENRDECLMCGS
UniProt P29401: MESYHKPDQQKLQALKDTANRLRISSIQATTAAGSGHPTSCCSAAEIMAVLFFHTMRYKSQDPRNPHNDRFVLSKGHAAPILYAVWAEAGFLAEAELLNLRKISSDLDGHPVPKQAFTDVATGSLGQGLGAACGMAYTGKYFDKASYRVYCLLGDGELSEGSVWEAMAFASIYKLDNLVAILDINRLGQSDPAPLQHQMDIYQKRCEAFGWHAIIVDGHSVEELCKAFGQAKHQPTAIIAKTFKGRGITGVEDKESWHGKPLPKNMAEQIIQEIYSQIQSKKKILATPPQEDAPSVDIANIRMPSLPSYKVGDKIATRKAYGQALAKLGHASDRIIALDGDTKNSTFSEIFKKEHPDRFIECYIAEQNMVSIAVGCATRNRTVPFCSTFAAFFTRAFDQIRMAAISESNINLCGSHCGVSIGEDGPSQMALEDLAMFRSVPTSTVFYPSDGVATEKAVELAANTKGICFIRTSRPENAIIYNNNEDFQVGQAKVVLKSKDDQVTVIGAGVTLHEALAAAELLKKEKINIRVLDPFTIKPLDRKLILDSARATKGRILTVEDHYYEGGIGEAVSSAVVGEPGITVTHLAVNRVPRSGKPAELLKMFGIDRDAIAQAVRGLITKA

Compound: COC(=O)/C=C/c1ccccc1 [methyl cinnamate]
Assay: log2 ratio of iodoacetamide-alkyne labeling of the cysteine site, DMSO over compound (competition); higher = stronger covalent engagement of the cysteine by the compound, active = 1 or more
Settings: 500 µM; treatment time 1 h; system: HEK293T cell lysate
In short: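 HEK293T lysate (2 mg/mL) was treated with DMSO or electrophile (500 µM, 1 h, ambient temperature), then iodoacetamide alkyne (1 h), clicked to sCIP-TMT reagents, pooled, trypsin-digested overnight at 37 °C, streptavidin-enriched and acid-eluted. Peptides were run on Orbitrap Eclipse LC-MS/MS with FAIMS and quantified in FragPipe. The log2 competition ratio per cysteine is mean control-channel over mean compound-channel reporter intensity. Duplicate channels and three replicates were used, and cysteines quantified in only one replicate were excluded.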

Target	log2 ratio of iodoacetamide-alkyne labeling
FLNA C478 (UniProt P21333)	inactive: 0.0938
CAST C241 (UniProt P20810)	inactive: 0.274
CAD C736 (UniProt P27708)	inactive: 0.0438
FLNA C1402 (UniProt P21333)	inactive: 0.147
ME2 C120 (UniProt P23368)	inactive: -0.0548
PFKL C170 (UniProt P17858)	inactive: -0.00554
APC C914 (UniProt P25054)	inactive: 0.155
APC C1387 (UniProt P25054)	inactive: 0.00762
DNAJB1 C179 (UniProt P25685)	inactive: 0.132
TCP1 C76 (UniProt P17987)	inactive: 0.0569
POLD1 C428 (UniProt P28340)	inactive: 0.216
CALR C163 (UniProt P27797)	inactive: 0.0358
AHCY C421 (UniProt P23526)	inactive: 0.042
TCP1 C147 (UniProt P17987)	inactive: 0.315
RRM1 C352 (UniProt P23921)	inactive: 0.0852
TKT C206 (UniProt P29401)	inactive: -0.182

Some of the entries above, set out differently.

| Target | log2 ratio of iodoacetamide-alkyne labeling |
| --- | --- |
| TCP1 C76 (UniProt P17987) | inactive: 0.0569 |
| POLD1 C428 (UniProt P28340) | inactive: 0.216 |
